Data published in paper PMC11392529.
No constants are given. Whether binding was seen depends on the method and setting. Binding seen in cells or lysates may run through a third protein. A yes stands for co-enrichment or nearness to the bait. Other partners may have been found.

Chains of the proteins cited; added tags and fusions are not shown.
UniProt P52480: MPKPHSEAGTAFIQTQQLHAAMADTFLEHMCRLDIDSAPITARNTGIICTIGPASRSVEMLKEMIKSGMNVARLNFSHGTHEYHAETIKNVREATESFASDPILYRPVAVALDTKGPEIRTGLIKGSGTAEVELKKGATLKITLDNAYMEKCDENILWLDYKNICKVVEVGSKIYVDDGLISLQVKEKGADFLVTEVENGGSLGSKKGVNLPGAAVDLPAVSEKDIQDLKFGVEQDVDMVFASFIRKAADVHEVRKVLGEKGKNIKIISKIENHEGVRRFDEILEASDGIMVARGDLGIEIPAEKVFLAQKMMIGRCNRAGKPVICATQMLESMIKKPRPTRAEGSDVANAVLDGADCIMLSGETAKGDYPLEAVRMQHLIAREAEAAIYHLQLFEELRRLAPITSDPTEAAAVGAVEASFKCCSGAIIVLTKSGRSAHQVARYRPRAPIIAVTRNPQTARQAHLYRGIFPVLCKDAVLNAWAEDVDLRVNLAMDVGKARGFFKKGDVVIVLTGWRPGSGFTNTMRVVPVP
UniProt P00342: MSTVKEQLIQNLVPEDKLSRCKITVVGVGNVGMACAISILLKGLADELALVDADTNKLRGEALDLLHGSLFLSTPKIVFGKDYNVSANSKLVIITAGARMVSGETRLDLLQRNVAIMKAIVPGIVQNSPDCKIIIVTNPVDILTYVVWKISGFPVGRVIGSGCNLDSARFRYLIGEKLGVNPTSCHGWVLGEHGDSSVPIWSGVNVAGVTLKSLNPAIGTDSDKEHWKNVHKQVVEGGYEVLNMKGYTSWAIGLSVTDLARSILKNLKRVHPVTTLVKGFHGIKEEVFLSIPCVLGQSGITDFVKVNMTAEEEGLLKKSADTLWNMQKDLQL

B1: MDH2, endogenous in primary astrocytes (protein, UniProt P08249 25-338)
chain: AKVAVLGASGGIGQPLSLLLKNSPLVSRLTLYDIAHTPGVAADLSHIETRANVKGYLGPEQLPDCLKGCDVVVIPAGVPRKPGMTRDDLFNTNATIVATLTAACAQHCPEAMVCIIANPVNSTIPITAEVFKKHGVYNPNKIFGVTTLDIVRANTFVAELKGLDPARVNVPVIGGHAGKTIIPLISQCTPKVDFPQDQLATLTGRIQEAGTEVVKAKAGAGSATLSMAYAGARFVFSLVDAMNGKEGVVECSFVQSKETECTYFSTPLLLGKKGLEKNLGIGKITPFEEKMIAEAIPELKASIKKGEDFVKNMK

Target: Pyruvate kinase M2 (PKM2), endogenous in primary astrocytes (mouse (endogenous in primary astrocytes)) (UniProt P52480)
Assay: affinity purification with mass spectrometry; lysates of unstimulated and MOGsup-stimulated (24 hr) primary astrocytes immunoprecipitated with antibody against PKM2; Q-Exactive Orbitrap, MaxQuant, Uniprot mouse database

| Molecule | binding |
| --- | --- |
| LDHC, endogenous in primary astrocytes (from UniProt P00342 1-332) | binds |
| B1 | binds |
